Reference: the supplement of paper PMC3334620
Over roughly 33,000 sequences, “E-score (-0.5 to 0.5)” has its median near -0.015; the highest 2% begin near 0.3. Some of the results follow.

These sequences were tested against T1, Abf1 (UniProt P14164) (assay: PBM E-score (8-mer binding enrichment) (E-score (-0.5 to 0.5)); higher = stronger / more preferred TF binding). Details: protein concentration: 200 nM; construct: GST-full length.
T1 sequence: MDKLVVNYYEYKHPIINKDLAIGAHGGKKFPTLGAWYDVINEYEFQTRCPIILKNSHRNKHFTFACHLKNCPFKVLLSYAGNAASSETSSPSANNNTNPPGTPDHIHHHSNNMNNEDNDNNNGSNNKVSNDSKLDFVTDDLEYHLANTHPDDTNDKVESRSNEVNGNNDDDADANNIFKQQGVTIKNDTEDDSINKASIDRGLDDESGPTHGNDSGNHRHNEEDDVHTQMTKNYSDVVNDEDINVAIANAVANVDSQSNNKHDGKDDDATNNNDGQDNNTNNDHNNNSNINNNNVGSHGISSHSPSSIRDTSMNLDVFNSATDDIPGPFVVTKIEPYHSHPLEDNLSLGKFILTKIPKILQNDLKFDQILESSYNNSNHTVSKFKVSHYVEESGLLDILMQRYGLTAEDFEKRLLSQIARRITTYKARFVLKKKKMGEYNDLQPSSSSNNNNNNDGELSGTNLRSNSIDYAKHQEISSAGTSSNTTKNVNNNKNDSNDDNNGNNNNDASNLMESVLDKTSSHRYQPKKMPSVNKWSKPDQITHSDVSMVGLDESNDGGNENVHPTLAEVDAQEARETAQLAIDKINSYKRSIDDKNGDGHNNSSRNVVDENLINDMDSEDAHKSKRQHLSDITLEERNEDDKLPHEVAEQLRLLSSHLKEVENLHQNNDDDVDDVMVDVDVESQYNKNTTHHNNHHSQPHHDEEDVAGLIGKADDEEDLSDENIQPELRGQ
Summary of the method: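 Yeast transcription factors, full-length or as DNA-binding domains, were expressed with a GST tag using PURExpress in vitro transcription/translation. At about 100-200 nM they were applied to universal all-10-mer Agilent arrays, double-stranded by primer extension on fresh or once-stripped slides. Fluorescent anti-GST detected bound protein, and masliner normalised the scans. E-scores for ungapped eight-base words, pooled with reverse complements, came from the Universal PBM Analysis Suite.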

| Sequence | PBM E-score |
| --- | --- |
| GCAGTAGC | -0.226 |
| ACGGGGAT | 0.168 |
| AAGTCTGA | -0.0352 |
| CGAGGCCG | -0.0493 |
| CACAGAAC | -0.0252 |
| GTGTCTCA | -0.00422 |
| CAGCCATA | -0.126 |
| CTAGGGAC | 0.0118 |
| AGTACGAC | 0.18 |
| AGGAGAAG | -0.0371 |
| AATAATAT | 0.276 |
| CTTGTCAA | 0.0838 |
| AGCCATTC | -0.231 |
| CCACATGG | -0.278 |
| CACGTGTA | 0.217 |
| GACATCTA | 0.189 |
| CTTTTGCA | 0.0446 |
| CACCCAAA | -0.0485 |
| ACCAATAA | -0.00797 |
| CTGCGTAA | -0.00545 |
| TCCAGGAA | -0.0758 |
| CCATAGGA | -0.161 |
| AAATTCAG | 0.104 |
| GTGCAAAA | 0.167 |
| GAACCACC | -0.0746 |

| Sequence | PBM E-score |
| --- | --- |
| AGTCAGCG | -0.195 |
| ATCCAGAG | 0.081 |
| ACTGCTGC | 0.0883 |
| GTCGGAGA | 0.00386 |
| CTTGACGC | -0.271 |
| TCCCCTAA | -0.0513 |
| TCGCAAGA | 0.0486 |
| TACGTACA | 0.271 |
| AAGTCAGG | -0.21 |
| ACTTGCGG | -0.187 |
| ACCAGCTG | 0.0537 |
| AAGATAGA | 0.0332 |
| CAGGTATA | 0.0143 |
| GGCCCCAA | -0.203 |
| CGCTAGGC | -0.185 |
| CATATCAA | 0.222 |
| AGCCGAAT | -0.0767 |
| AACGCTGG | -0.224 |
| ACGTATTC | 0.0987 |
| AGGTACGC | -0.111 |
| CCTTATCG | 0.163 |
| GCTTCGCC | -0.147 |
| AACCGAGA | 0.0787 |
| AGTAATGC | -0.114 |
| CTCCCCAC | -0.0818 |

| Sequence | PBM E-score |
| --- | --- |
| ATTCGTAG | 0.191 |
| CGAGGCTC | -0.222 |
| CACGCGGG | -0.0466 |
| CTAGCGGA | -0.327 |
| GTAAACCA | -0.0676 |
| GCTAGCCC | -0.331 |
| TCGACAAA | -0.0435 |
| ATTTTCAG | 0.0843 |
| GGTAAGAA | -0.0831 |
| ATCCTCTA | 0.083 |
| ATGGCTAG | 0.1 |
| AACGTCGG | -0.0426 |
| ATAGCTTA | -0.0294 |
| CATGATGC | 0.123 |
| CCGTGCGC | 0.218 |
| AGGAGACC | -0.21 |
| CGTGTGCC | 0.0926 |
| ATGGCGCG | -0.129 |
| GCAGCCCC | -0.257 |
| GGATATTA | 0.088 |
| ACCTTACG | 0.1 |
| AGATGCAT | -0.058 |
| CAACTCAG | -0.141 |
| AGAGCCGA | -0.112 |
| AGCTTTCC | -0.221 |

Part of the list above, with tabs:
Sequence	PBM E-score
GTAAACCA	-0.0676
GCTAGCCC	-0.331
TCGACAAA	-0.0435
ATTTTCAG	0.0843

In a second layout: results already given.
Sequence,PBM E-score
ATAGCTTA,-0.0294
CATGATGC,0.123
CCGTGCGC,0.218

The results go on:

| Sequence | PBM E-score |
| --- | --- |
| ATCCGAAC | -0.195 |
| GGCTATTA | 0.199 |
| CTAGTACA | 0.0965 |
| AGGTGAGA | 0.0141 |
| CTCTGTGA | -0.118 |
| CGTACCAA | 0.353 |
| GTGGACGA | 0.204 |
| AAACAGCG | -0.115 |
| ACGTGATG | 0.215 |
| ACCACGAA | 0.0971 |
| AGGAAAAC | 0.0249 |
| CTCACTGC | -0.0817 |
| ATGGCAGC | -0.268 |
| AGGGAATC | -0.139 |
| ATAACGAT | 0.211 |
| CATGTAGG | -0.00058 |
| ATGGATAA | 0.0572 |
| TTTAAAAA | 0.00896 |
| GACTATTA | 0.0634 |
| ACTGCGCG | -0.141 |
| AAATACTG | 0.0702 |
| AGCCGTCG | 0.202 |
| AGGGAAGA | -0.22 |
| CAAGTATA | -0.159 |
| CATACGGG | 0.178 |

| Sequence | PBM E-score |
| --- | --- |
| CACGGAGG | 0.05 |
| CCATCGAA | -0.157 |
| CACCAGTG | 0.00641 |
| CAGACTAG | -0.177 |
| CTCAGGAG | -0.109 |
| ACGGCTGC | 0.0827 |
| CAGTTCCC | -0.0699 |
| CAGTTGGG | -0.143 |
| ATAATCGA | 0.0981 |
| AGAGTGGG | -0.0348 |
| ACTTCCGC | -0.0166 |
| CGCTGGAC | -0.186 |
| AGTTTCAC | 0.0678 |
| ACCGTCGC | 0.227 |
| ACGCATAC | -0.0215 |
| CTATTGCA | -0.0633 |
| ACCTGTGG | -0.0102 |
| ACATGACT | 0.012 |
| CGCAGTCA | -0.184 |
| ATTGAGCA | -0.0473 |
| AAGCTGTA | -0.201 |
| AGAACCCT | -0.2 |
| CTCCTAGA | -0.13 |
| CAAATAGA | 0.0564 |
| GTACAAGA | 0.137 |

| Sequence | PBM E-score |
| --- | --- |
| AGCTGTTA | -0.0189 |
| ACCCTCGA | -0.17 |
| AAAATGAC | 0.297 |
| CGGAGGGC | -0.224 |
| CTTCAATC | -0.0733 |
| ACATTAAT | 0.21 |
| CATTGCAC | 0.0878 |
| CAATTCCC | -0.0618 |
| TGCGTCAA | -0.00321 |
| TCCGACGA | 0.392 |
| ATAACCCA | -0.0314 |
| GATTGTCA | 0.268 |
| AACCTAGC | -0.175 |
| AGAGAGAG | -0.215 |
| CCGTTGGA | -0.136 |
| AGTCCGAG | -0.123 |
| ACAACCAT | 0.0878 |
| AGCTCACC | -0.0163 |
| TACTACTA | 0.11 |
| CCACTGAG | -0.258 |
| GATCCAAA | 0.111 |
| AGCACTGG | -0.168 |
| CGCGATTC | 0.0987 |
| AGATCACC | 0.311 |
| ACCGCATC | 0.16 |

| Sequence | PBM E-score |
| --- | --- |
| CGAATCAG | 0.0205 |
| TACCGGGA | -0.103 |
| AGTACAGA | 0.0325 |
| AACATTAA | 0.0328 |
| ACACTCGT | 0.242 |
| CTCATCTA | 0.0696 |
| GAGTTATC | 0.139 |
| CACCTTTA | -0.0514 |
| AGTGTGTA | -0.0237 |
| ATACCTAG | 0.0418 |
| AAGAGGAG | -0.125 |
| CGGCGCCA | -0.044 |
| CCTGACAC | -0.00884 |
| ACGCCCCG | -0.0726 |
| CAGAGCCG | -0.088 |
| GATAGTGC | -0.022 |
| ACTAATGG | 0.00087 |
| CATCCCAC | -0.193 |
| GATTCAAA | -0.15 |
| ACACCACT | -0.123 |
| CCACCCGC | -0.253 |
| GTTTGGGA | 0.133 |
